For 21 compounds, growth inhibition results are on record in the supplement of paper PMC3047530.

SMILES strings stand for the structures. The list shows a part of the results. Most values come without repeats; read them as rough.

This assay deals with Geomyces destructans. Nature of the assay: growth inhibition relative to DMSO control; higher = stronger growth inhibition. As to conditions: 10 µM; 15 °C; incubation time 10 days.
For `CC(=O)OC1CN2CCC1CC2` (stereo unspecified), the growth inhibition was determined as 6.42%. Under `CC(CCc1ccccc1)NC(C)C(O)c1ccc(O)cc1` (stereo unspecified) stands -19.2%. For `COC(=O)[C@]1(C)CC[C@]2(C)CC[C@]3(C)C4=CCc5c(cc(O)c(O)c5C)[C@]4(C)CC[C@@]3(C)[C@@H]2C1` the value was -5.81%; for `COP(=S)(OC)Oc1ccc([N+](=O)[O-])cc1`, 2.16%. Turning to `N.N.[Cl][Pt][Cl]`, the growth inhibition stood at 4.86%. For `COc1cc(OC)c2c(c1)OC(c1ccc(OC)c(OC)c1)C(O)C2` (stereo unspecified) the value was 0.865%; for `CCCN1C[C@H](CSC)C[C@@H]2c3cccc4[nH]cc(c34)C[C@H]21`, -15.7%; for `CC(C)N1C(=O)c2ccccc2NS1(=O)=O`, -11.9%. Consider `c1ccc2c(c1)cc1ccc3cccc4ccc2c1c34`, for which the growth inhibition was determined as 8.51%.

In the case of `CC[C@@H](C)C(=O)O[C@H]1[C@H](O)[C@H]2[C@@H](CN3C[C@@H](C)CC[C@H]3[C@@]2(C)O)[C@@H]2C[C@]34O[C@]5(O)[C@@H](OC(=O)[C@](C)(O)[C@@H](C)O)CC[C@@]3(C)[C@@H]5[C@@H](OC(C)=O)[C@@H](OC(C)=O)[C@H]4[C@@]21O` (stereo in doubt), the growth inhibition was -10.2%. For `CC1=C(O)C(=O)C=C2C1=CC=C1[C@@]2(C)CC[C@@]2(C)[C@@H]3C[C@](C)(C(=O)O)CC[C@]3(C)CC[C@]12C` the value was -26.3%; for `N#C/C(=C\c1ccc(O)cc1)C(=O)O` [alpha-CYANO-4-HYDROXYCINNAMIC ACID], -17.2%. For `CC(=O)Oc1ccc(/C=C/c2cc(OC(C)=O)cc(OC(C)=O)c2)cc1`, the growth inhibition was -4.62%. With `Oc1cccc2cccnc12`, the growth inhibition is -14.9%. Regarding `COC(=O)[C@]1(C)CC[C@]2(C)CC[C@]3(C)C4=CC=C5C(=CC(=O)C(O)=C5C)[C@]4(C)CC[C@@]3(C)[C@@H]2C1`, the growth inhibition is -22.6%. Under `Cc1ncc(CNC(=O)N(CCCl)N=O)c(N)n1` stands -35%.

`CN1CCCCC1c1ccc(-c2cccnc2)nc1` (stereo unspecified): the growth inhibition stood at 3.56%.

Consider `CCCCCCCCCc1ccc(O)cc1`, for which the growth inhibition was determined as 10.2%. Under `CNc1ccc(C(=O)CC(O)CCC(C)C2OC(=O)CC(O)CC(=O)CC(O)CC(O)CC(O)CC(O)CC3(O)CC(O)C(C(=O)OC)C(CC(O[C@@H]4O[C@H](C)[C@@H](O)[C@H](N)[C@@H]4O)/C=C/C=C/C=C/C=C/C=C/C=C/C=C/C2C)O3)cc1.COC(=O)C1C(O)CC2(O)CC(O)CC(O)CC(O)CC(O)CC(=O)CC(O)CC(=O)OC(C(C)CCC(O)CC(=O)c3ccc(N)cc3)C(C)/C=C/C=C/C=C/C=C/C=C/C=C/C=C/C(O[C@@H]3O[C@H](C)[C@@H](O)[C@H](N)[C@@H]3O)CC1O2` (stereo partly specified) stands -29%; under `COc1ccc2[nH]cc(CCN)c2c1`, -1.93%. In the case of `CC(=O)O[C@H]1C[C@H](O[C@H]2[C@@H](O)C[C@H](O[C@H]3[C@@H](O)C[C@H](O[C@H]4CC[C@@]5(C)[C@H](CC[C@@H]6[C@@H]5C[C@@H](O)[C@]5(C)[C@@H](C7=CC(=O)OC7)CC[C@]65O)C4)O[C@@H]3C)O[C@@H]2C)O[C@H](C)[C@H]1O[C@@H]1O[C@H](CO)[C@@H](O)[C@H](O)[C@H]1O`, the growth inhibition was -11.7%.
